This passage reports binding results from publication PMC5964324.

Amino acid sequences for entries named in this document (tags omitted).
UniProt P54578: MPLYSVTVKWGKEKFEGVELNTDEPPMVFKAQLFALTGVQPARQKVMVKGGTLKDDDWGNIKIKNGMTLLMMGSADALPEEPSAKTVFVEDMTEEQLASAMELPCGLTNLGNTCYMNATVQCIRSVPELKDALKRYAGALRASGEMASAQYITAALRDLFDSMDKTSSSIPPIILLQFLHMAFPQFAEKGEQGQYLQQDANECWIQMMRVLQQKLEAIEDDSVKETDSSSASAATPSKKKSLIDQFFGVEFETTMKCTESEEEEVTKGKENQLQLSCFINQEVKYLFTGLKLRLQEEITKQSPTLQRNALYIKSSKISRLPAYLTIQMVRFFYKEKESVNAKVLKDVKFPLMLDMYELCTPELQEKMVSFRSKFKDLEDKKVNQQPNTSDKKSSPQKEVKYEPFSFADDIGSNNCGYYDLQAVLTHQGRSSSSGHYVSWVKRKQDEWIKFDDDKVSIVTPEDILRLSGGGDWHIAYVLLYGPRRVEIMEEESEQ
UniProt Q96RN5: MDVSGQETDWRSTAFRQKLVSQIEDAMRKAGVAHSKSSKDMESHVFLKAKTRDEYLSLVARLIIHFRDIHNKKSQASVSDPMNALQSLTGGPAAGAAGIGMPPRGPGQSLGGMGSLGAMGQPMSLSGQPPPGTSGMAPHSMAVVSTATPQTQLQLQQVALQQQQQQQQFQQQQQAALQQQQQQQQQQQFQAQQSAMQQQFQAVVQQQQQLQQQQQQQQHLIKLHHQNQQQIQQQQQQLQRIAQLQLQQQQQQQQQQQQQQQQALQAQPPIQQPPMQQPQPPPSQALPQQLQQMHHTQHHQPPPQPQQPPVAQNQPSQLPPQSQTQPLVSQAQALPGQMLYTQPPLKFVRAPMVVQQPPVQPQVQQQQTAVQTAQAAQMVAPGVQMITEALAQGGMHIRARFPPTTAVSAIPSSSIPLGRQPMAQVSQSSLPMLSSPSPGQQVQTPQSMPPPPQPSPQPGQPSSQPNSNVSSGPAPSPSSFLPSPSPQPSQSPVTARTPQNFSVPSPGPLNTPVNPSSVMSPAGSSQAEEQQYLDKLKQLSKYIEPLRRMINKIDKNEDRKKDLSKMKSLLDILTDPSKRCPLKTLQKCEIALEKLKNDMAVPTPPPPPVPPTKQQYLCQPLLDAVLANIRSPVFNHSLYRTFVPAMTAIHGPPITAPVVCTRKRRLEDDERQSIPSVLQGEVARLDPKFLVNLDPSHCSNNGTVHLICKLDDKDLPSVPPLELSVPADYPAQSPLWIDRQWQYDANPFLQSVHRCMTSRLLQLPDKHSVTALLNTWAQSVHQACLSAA
UniProt Q13263: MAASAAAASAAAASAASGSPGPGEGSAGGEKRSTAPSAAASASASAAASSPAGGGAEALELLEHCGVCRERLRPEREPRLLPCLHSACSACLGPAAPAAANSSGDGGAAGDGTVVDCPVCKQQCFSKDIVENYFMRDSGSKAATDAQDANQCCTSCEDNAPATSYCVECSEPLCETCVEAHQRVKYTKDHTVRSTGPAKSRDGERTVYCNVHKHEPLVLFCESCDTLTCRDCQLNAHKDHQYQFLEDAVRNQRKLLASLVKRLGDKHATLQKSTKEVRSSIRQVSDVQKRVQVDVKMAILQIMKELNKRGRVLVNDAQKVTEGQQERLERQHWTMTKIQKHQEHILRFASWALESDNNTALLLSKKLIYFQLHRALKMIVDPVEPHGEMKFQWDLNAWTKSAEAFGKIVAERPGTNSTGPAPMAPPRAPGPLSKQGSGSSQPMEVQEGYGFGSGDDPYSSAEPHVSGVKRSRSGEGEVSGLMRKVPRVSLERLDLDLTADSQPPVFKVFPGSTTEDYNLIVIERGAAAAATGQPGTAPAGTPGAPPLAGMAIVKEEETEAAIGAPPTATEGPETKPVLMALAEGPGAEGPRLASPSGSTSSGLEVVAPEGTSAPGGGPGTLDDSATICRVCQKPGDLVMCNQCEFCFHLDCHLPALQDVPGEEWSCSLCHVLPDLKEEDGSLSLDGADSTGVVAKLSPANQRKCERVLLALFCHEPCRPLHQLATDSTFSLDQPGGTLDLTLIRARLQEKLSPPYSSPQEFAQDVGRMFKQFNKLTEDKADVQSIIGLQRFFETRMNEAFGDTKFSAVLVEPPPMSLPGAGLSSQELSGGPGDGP
UniProt Q13200: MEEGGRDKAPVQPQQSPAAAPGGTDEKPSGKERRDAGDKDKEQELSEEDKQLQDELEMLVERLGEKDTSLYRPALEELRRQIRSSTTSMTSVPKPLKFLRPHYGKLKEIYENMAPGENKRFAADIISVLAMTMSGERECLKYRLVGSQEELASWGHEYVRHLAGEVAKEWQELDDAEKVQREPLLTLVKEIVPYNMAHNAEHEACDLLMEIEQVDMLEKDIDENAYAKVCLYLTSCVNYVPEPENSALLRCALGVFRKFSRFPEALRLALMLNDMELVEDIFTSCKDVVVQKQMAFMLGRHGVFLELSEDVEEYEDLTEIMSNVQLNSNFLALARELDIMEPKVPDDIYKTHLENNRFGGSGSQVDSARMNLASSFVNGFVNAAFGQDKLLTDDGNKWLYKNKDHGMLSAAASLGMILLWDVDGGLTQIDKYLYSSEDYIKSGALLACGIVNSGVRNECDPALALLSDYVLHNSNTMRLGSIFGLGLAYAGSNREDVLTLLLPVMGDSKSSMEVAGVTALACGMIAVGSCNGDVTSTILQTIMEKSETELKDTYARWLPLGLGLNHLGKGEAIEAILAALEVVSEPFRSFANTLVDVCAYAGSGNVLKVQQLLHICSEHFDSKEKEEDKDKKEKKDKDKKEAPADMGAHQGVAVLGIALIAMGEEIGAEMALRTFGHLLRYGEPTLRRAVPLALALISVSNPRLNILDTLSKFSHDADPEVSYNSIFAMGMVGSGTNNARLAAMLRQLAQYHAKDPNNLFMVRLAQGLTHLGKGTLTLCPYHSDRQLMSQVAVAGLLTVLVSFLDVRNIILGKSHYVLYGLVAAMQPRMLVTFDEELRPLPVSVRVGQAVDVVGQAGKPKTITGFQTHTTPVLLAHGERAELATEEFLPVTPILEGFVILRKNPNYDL

What all share (experiment): affinity purification with mass spectrometry; lysates of HCT116 cells stably expressing control vector, Flag-TRIM11 or HA-Flag-USP14; anti-Flag M2 beads, 4 °C, 4 h; 50 mM HEPES pH 7.4, 150 mM NaCl, 0.5% NP-40, 0.5% Triton X-100; eluted with 3xFLAG peptide
In one test the target is T1, Flag-TRIM11 (UniProt Q96F44).
T1 sequence: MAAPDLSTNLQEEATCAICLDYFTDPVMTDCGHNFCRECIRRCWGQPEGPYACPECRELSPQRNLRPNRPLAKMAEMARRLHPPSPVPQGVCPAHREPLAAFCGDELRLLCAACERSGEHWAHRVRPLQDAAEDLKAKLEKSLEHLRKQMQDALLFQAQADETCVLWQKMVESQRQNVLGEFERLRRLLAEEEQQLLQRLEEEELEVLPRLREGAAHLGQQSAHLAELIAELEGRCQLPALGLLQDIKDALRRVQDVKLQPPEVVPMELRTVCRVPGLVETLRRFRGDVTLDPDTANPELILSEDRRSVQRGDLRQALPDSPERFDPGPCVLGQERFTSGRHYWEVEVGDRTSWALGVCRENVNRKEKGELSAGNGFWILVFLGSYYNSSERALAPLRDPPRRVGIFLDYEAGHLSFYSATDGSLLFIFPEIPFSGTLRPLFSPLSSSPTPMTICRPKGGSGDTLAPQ

The target of test [1] is HA-Flag-USP14 (human) (UniProt P54578).
Test [2] shares this target. This is another data set of the same source.

Read-outs that look alike come from different tables or passages of the source. No constants are given. Whether binding was seen depends on the method and setting. In cells and extracts the contact can be indirect. These calls come from enrichment with a bait or labelling near it, and not all partners need be listed. For some of these results: Where a sequence is shown, tags or fusion partners need not be part of it.

As to MED15 (from UniProt Q96RN5 1-788), the binding entry with Flag-TRIM11 is on record as “binds”. Consider TRIM28 (from UniProt Q13263 1-835), for which, in the test with HA-Flag-USP14 (human) [1], the binding entry is reported as “binds”.

For “endogenous PSMD2 (from UniProt Q13200 1-908)”, the binding result in the test with Flag-TRIM11 was “binds”.

B1: endogenous TRIM11 (protein, UniProt Q96F44 1-468)
chain: T1 sequence
As for B1, the binding result with HA-Flag-USP14 (human) [2] was “binds”.
